These are yes or no findings as the source states them, for the method shown. Some results given as binding are weak or reduced against the parent protein; the word gives no strength. Sequences can lack the tags named with a protein.

In test [1] the target is T1, HIS-TEV-Nse1 (S. cerevisiae) (UniProt Q07913).
T1 sequence: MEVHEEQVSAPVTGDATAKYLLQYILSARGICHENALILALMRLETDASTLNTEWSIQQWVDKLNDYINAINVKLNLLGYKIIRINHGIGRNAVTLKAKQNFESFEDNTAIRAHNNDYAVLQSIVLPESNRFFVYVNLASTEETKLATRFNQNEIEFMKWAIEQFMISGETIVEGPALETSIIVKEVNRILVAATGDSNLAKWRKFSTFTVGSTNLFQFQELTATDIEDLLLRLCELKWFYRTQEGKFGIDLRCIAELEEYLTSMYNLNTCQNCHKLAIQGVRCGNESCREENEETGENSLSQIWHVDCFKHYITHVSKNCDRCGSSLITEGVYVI
As to the kind of experiment: co-purification of co-expressed proteins; N1–N3–N4 and N5-N6 sub-complexes co-expressed in Sf9; 'standard chromatographic techniques'; colloidal blue SDS-PAGE and western blot of the tags.

For test [2], the target named is T2, Smc5-FLAG (S. cerevisiae) (UniProt Q08204).
T2 sequence: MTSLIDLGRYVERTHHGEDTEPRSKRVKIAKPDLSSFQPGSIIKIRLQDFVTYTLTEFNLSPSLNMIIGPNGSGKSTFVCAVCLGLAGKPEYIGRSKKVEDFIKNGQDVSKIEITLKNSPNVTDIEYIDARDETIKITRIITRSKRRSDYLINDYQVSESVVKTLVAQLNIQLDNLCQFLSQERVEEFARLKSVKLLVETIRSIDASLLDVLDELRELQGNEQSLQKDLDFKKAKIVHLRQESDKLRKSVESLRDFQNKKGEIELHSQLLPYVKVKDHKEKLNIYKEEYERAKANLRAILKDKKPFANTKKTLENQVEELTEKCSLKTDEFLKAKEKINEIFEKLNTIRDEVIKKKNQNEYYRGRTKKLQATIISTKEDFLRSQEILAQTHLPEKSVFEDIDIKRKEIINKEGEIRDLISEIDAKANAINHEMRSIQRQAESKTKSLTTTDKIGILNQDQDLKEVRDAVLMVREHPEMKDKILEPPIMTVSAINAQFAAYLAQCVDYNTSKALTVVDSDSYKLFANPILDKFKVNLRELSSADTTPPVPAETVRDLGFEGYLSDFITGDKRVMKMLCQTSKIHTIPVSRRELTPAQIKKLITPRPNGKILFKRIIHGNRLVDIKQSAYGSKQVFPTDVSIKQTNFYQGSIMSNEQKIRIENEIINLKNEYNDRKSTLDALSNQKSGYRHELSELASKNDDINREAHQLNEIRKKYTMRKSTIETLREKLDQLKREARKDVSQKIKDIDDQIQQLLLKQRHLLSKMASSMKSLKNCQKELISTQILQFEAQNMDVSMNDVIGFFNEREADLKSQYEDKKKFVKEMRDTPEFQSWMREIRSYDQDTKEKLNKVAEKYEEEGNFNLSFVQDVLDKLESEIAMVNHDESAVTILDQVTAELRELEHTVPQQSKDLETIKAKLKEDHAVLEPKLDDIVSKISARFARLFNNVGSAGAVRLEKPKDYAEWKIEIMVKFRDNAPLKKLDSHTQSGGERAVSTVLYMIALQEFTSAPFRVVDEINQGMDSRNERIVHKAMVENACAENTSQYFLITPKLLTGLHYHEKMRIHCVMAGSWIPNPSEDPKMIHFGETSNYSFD
Put plainly: co-purification of co-expressed proteins; Smc5-FLAG, Smc6-AVI-HIS and HA-Nse2, without or with HIS-TEV-Nse1, Nse3 and Nse4-HALO-Myc, co-expressed in Sf9 from one baculovirus; lysate on CoHIS resin, then ANTI-FLAG M2 gel (eluted with 3x FLAG peptide), heparin, Superose 6 in 20 mM HEPES pH 7.5, 150 mM NaCl, 0.5 mM TCEP; SDS-PAGE.

Test [3] addresses T3, HIS-3C-Nse6 (S. cerevisiae) (UniProt P40026).
T3 sequence: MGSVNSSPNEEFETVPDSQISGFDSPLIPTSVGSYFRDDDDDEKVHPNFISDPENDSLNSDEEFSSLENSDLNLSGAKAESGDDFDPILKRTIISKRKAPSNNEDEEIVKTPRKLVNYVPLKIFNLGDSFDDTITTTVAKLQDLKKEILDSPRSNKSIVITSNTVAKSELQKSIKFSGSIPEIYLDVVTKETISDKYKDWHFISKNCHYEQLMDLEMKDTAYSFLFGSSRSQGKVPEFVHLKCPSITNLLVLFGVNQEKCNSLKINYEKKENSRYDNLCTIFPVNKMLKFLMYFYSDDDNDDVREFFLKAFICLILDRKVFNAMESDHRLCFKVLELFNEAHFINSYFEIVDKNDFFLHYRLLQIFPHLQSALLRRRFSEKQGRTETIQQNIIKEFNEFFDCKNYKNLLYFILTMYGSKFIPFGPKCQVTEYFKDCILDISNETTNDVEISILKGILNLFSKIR
As to the kind of experiment: co-purification of co-expressed proteins; N1–N3–N4 and N5-N6 sub-complexes co-expressed in Sf9; 'standard chromatographic techniques'; colloidal blue SDS-PAGE and western blot of the tags.

The target of test [4] is T2, Smc5-FLAG (S. cerevisiae). Put plainly: negative stain electron microscopy; purified complexes cross-linked with glutaraldehyde or BS3 and run on Superose 6 in buffer D; uranyl acetate stain; 2D classes, 3D reconstruction and focussed refinement in RELION; both purified.

B1: Nse3 (protein, UniProt Q05541 1-303)
chain: MSSIDNDSDVDLTEDLAVAKIVKENPVARKMVRYILSRGESQNSIITRNKLQSVIHEAAREENIAKPSFSKMFMDINAILYNVYGFELQGLPSKNNMNAGGNGSNSNTNKSMPEPLGHRAQKFILLNNVPHSKNFDDFKILQSAHTYEELIVTGEYIGDDIASGTSNTLESKLSTDRDLVYKGVLSVILCIVFFSKNNILHQELIKFLETFGIPSDGSKIAILNITIEDLIKSLEKREYIVRLEEKSDTDGEVISYRIGRRTQAELGLESLEKLVQEIMGLEKEQTKSLHDDIIKSIGDSYSI
For B1, the binding result in test [1] and in test [2] was “binds” in each case.

B2: Nse5-C.tag (protein, UniProt Q03718 1-556)
chain: MDGALINSVLYVSPRNGAHYFVELTEKHLLAFEMLNSMCLLENYDHVLLFLECQFGKSHNLAVIPFDIILVLFTLSTLSEYYKEPILRANDPYNTSRETLSRRALKLLQKYLAILKEFDSEQYNLYDLELLRCQFFLAIDTLTPKKQKWGFDRFRRTKSESGVTYRQNASVDPELDQAKTFKNPYRSYISCLEQRNTILGNRLLNLKLNEPGEFINMILWTLSNSLQESTPLFLSSHEIWMPLLEILIDLFSCRQDYFIQHEVAQNVSKSLFVQRLSESPLAVFFESLNTRNFANRFSEYVFLNCDYKLPSDNYATPVHPVYNGENTIVDTYIPTIKCSPLYKSQKSLALRRKLIGSCFKLLLRVPDGHRLITPRIVADDVIQGISRTLASFNDILQFKKFFMTENLSQESYFIPLLAEGTLSEILKDTQECVVILTLVENLSDGVSFCNEVIGLVKSKCFAFTEQCSQASYEEAVLNIEKCDVCLLVLLRYLLHLIGTEAILDAKEQLEMLHAIEKNDSGRRQWAKALNLGNDPPLLYPIVSQMFGVHDKSVIIE
Turning to B2, the binding result in test [3] is on record as “binds”.

B3: HIS-TEV-Nse1 (protein, UniProt Q07913 1-336)
chain: MEVHEEQVSAPVTGDATAKYLLQYILSARGICHENALILALMRLETDASTLNTEWSIQQWVDKLNDYINAINVKLNLLGYKIIRINHGIGRNAVTLKAKQNFESFEDNTAIRAHNNDYAVLQSIVLPESNRFFVYVNLASTEETKLATRFNQNEIEFMKWAIEQFMISGETIVEGPALETSIIVKEVNRILVAATGDSNLAKWRKFSTFTVGSTNLFQFQELTATDIEDLLLRLCELKWFYRTQEGKFGIDLRCIAELEEYLTSMYNLNTCQNCHKLAIQGVRCGNESCREENEETGENSLSQIWHVDCFKHYITHVSKNCDRCGSSLITEGVYVI
For the molecule B3, the binding entry in test [2] is “binds”.

B4: HA-Nse2 (protein, UniProt P38632 1-267)
chain: MALNDNPIPKSVPLHPKSGKYFHNLHARDLSNIYQQCYKQIDETINQLVDSTSPSTIGIEEQVADITSTYKLLSTYESESNSFDEHIKDLKKNFKQSSDACPQIDLSTWDKYRTGELTAPKLSELYLNMPTPEPATMVNNTDTLKILKVLPYIWNDPTCVIPDLQNPADEDDLQIEGGKIELTCPITCKPYEAPLISRKCNHVFDRDGIQNYLQGYTTRDCPQAACSQVVSMRDFVRDPIMELRCKIAKMKESQEQDKRSSQAIDVL
B4: the binding entry in test [4] and in test [2] was “binds” throughout.

B5: Nse4-HALO-Myc (protein, UniProt P43124 1-402)
chain: MSSTVISRKRRNSTVTEPDSSGETRKQKKSRSDEKSSSSKDGDPQLEFKVLQGYRDLESEMHKGRAQVTRTGDIGVAMDNLNAVDSLFNKVIGIKNNGLFAHDARAMVSISELAQISVRNLKFDDSRSMVNLENIVNSLKRYMLKEHFKLNNIAENRNDLTLAADEQSAADQQEESDGDIDRTPDDNHTDKATSSFKATSMRHSYLQQFSHYNEFSQFNWFRIGALYNTISKNAPITDHLMGPLSIEKKPRVLTQRRRNNDQVGEKITAEKITQHSLNSTQQETTPEQVKKCFKKLSKKLGPEGSINLFKFIIDPNSFSRSIENLFYTSFLIKEGKLLMEHDEEGLPTIKIKQSISHTDSRSKEIERQRRRAAHQNHIIFQMDMPTWRKLIKKYNITSPFLD
As to B5, the binding result in test [1] and in test [2] was “binds” throughout.

The record behind these values is PMC8096239, “Nse5/6 is a negative regulator of the ATPase activity of the Smc5/6 complex”.
